Experimental data published in the supplement of paper PMC10727501.
The list shows a part of the results. This data set is noisy: repeats of one test often differ as much as different tests do.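 Free-swimming zebrafish larvae were assessed for O-bend response probability to dark flashes (naive: first five; training: remaining flashes across four 60-flash blocks; test: later 60-flash block) and for OMR turning toward alternating leftward/rightward LED motion. Six treated larvae were compared against sixty 0.1% DMSO controls; hits required |SSMD|≥2.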

What was measured:
Details in all cases: 10 µM; pre-incubation: 30-90 min
[1] = tested on: Danio rerio larvae (5 dpf, TLF); assay: OMR-Perf (SSMD vs DMSO vehicle); higher = higher than vehicle (e.g. higher dark-flash O-bend response probability, or better optomotor performance)
[2] = tested on: Danio rerio larvae (5 dpf, TLF); assay: Prob-Test (SSMD vs DMSO vehicle); higher = higher than vehicle (e.g. higher dark-flash O-bend response probability, or better optomotor performance)
[3] = tested on: Danio rerio larvae (5 dpf, TLF); assay: Prob-Naive (SSMD vs DMSO vehicle); higher = higher than vehicle (e.g. higher dark-flash O-bend response probability, or better optomotor performance)
[4] = tested on: Danio rerio larvae (5 dpf, TLF); assay: Prob-Train (SSMD vs DMSO vehicle); higher = higher than vehicle (e.g. higher dark-flash O-bend response probability, or better optomotor performance)

| Compound | OMR-Perf [1] | Prob-Test [2] | Prob-Naive [3] | Prob-Train [4] |
| --- | --- | --- | --- | --- |
| CN(C)C(=O)Oc1cccc([N+](C)(C)C)c1.[Br-] [Neostigmine bromide (Prostigmin)] | -0.0209 | -0.439 | -0.337 | -0.128 |
| Cc1cc(O)ccc1Cl [Chlorocresol] | 0.55 | -0.244 | -0.596 | -1.14 |
| CN1C(=O)CCS(=O)(=O)C1c1ccc(Cl)cc1 (stereo not drawn) [Chlormezanone] | -0.424 | 0.44 | 0.285 | 0.636 |
| C[N+]1(C)CCCC(OC(=O)C(O)(c2ccccc2)c2ccccc2)C1 (stereo not drawn) [Mepenzolate Bromide] | -0.0483 | -0.275 | 0.298 | -0.3 |
| CN1CCc2cc3c(cc2[C@H]1[C@@H]1OC(=O)c2c1ccc1c2OCO1)OCO3 [(+)-Bicuculline] | -0.759 | -0.229 | -0.199 | -0.203 |
| C[N+]1(C)[C@@H]2C[C@H](OC(=O)[C@H](CO)c3ccccc3)C[C@H]1[C@@H]1O[C@@H]12.[Br-] [Methscopolamine] | -0.0441 | 0.106 | -0.0215 | -0.396 |
| NCC1(CC(=O)O)CCCCC1 [Gabapentin (Neurontin)] | -0.0375 | 0.719 | -0.319 | 0.0271 |
| O=P([O-])(O)C(Cl)(Cl)P(=O)([O-])O.[Na+].[Na+] [Clodronate Disodium] | -0.735 | 0.167 | 0.433 | 0.0885 |
| C=C1CCC2(O)C3Cc4ccc(O)c5c4C2(CCN3CC2CC2)C1O5.Cl (stereo not drawn) [Nalmefene HCl] | -0.259 | -1.44 | -0.444 | -2.1 |
| C[C@](O)(COc1ccc(C#N)cc1)C(=O)Nc1ccc(C#N)c(C(F)(F)F)c1 | -0.785 | -1.25 | -0.595 | -1.12 |
| O=S(=O)([O-])[O-].[NH3+]C1CC1c1ccccc1.[NH3+]C1CC1c1ccccc1 (stereo not drawn) [Phosphatidylcholine] | 0.0642 | -1.53 | 0.298 | -0.771 |
| CC(NC(C)(C)C)C(=O)c1cccc(Cl)c1.Cl (stereo not drawn) [Amfebutamone HCl] | 0.239 | 0.168 | -0.0304 | 0.216 |
| O=C(NCC1CCOCC1)c1cnc(Nc2ccc(Cl)cc2Cl)nc1C(F)(F)F | -0.724 | -0.335 | -0.0375 | -0.21 |
| CCCC[N+]1(C)[C@@H]2C[C@@H](OC(=O)[C@@H](CO)c3ccccc3)C[C@H]1[C@@H]1O[C@@H]12.[Br-] (stereo partly drawn) [Butylscopolamine Bromide] | -0.491 | -0.269 | 0.208 | 0.109 |
| O=S(=O)(F)Cc1ccccc1 | -0.371 | 1.15 | -0.761 | -0.451 |
| CC[C@@H]1[C@@H](C)O[C@@](O)([C@@H](C)[C@H](O)[C@H](C)[C@H]2OC(=O)/C=C/C=C/[C@H](C)[C@H]([C@@H](C)[C@@H](O)[C@H](C)[C@@]3(O)C[C@@H](O[C@H]4C[C@H](O)[C@H](O)[C@H](C)O4)[C@H](CC)[C@@H](C)O3)OC(=O)/C=C/C=C/[C@H]2C)C[C@H]1O[C@H]1C[C@H](O)[C@H](O)[C@H](C)O1 [Elaiophylin] | 0.184 | 0.0269 | 0.292 | 0.2 |
| C[C@]12CCC(=O)C(O)=C1CC[C@@H]1[C@H]2CC[C@]2(C)C(=O)CC[C@@H]12 [Formestane] | -0.58 | 0.0727 | -0.0954 | 0.0432 |
| O.O=P1(N(CCCl)CCCl)NCCCO1 (stereo not drawn) [Cyclophosphamide monohydrate] | -0.344 | -0.166 | 0.106 | -0.632 |
| CNCC(O)c1ccc(O)cc1 (stereo not drawn) [Synephrine] | 0.313 | -0.242 | -0.038 | 0.0264 |
| CN[C@@H]1C[C@@H](N)[C@H](O)[C@@H](O[C@@H]2O[C@H](CO)[C@H](O)[C@@H]3OC4(O[C@@H]23)O[C@H]([C@@H](N)CO)[C@H](O)[C@H](O)[C@@H]4O)[C@@H]1O (stereo partly drawn) [Hygromycin B] | -0.577 | -0.155 | 0.131 | -0.0925 |
| COc1ccc(CC2NCCc3cc(OC)c(OC)cc32)cc1OC.Cl (stereo not drawn) [Tetrahydropapaverine HCl] | 0.0894 | -0.0643 | 0.146 | -0.3 |
| CC(=O)O[C@@]12CO[C@@H]1C[C@@H](O)[C@@]1(C)C(=O)[C@H](O)C3=C(C)[C@@H](O)C[C@@](O)([C@@H](OC(=O)c4ccccc4)[C@H]21)C3(C)C [10-Deacetylbaccatin-III] | 0.0296 | 0.411 | -0.639 | -0.176 |
| Cc1ccc(-n2nccn2)c(C(=O)N2CCN(c3nc4cc(Cl)ccc4o3)CC[C@H]2C)c1 [Suvorexant (MK-4305)] | -1 | -1.71 | -4.98 | -2.51 |
| NC[C@H](CC(=O)O)c1ccc(Cl)cc1 [(R)-baclofen] | 0.545 | -0.105 | -0.376 | -0.00727 |

| Compound | OMR-Perf [1] | Prob-Test [2] | Prob-Naive [3] | Prob-Train [4] |
| --- | --- | --- | --- | --- |
| C[C@]12N[C@H](Cc3ccccc31)c1ccccc12 [MK-801 (Dizocilpine)] | -0.931 | -1.59 | 0.185 | -0.395 |
| Cl.O=C1CC[C@@]2(O)[C@H]3Cc4ccc(O)c5c4[C@@]2(CCN3CC2CC2)[C@H]1O5 [Naltrexone HCl] | 0.214 | -0.893 | -0.215 | -1.39 |
| CN(C)[C@@H]1C(O)=C(C(N)=O)C(=O)[C@@]2(O)C(=O)C3=C(O)c4c(O)cccc4[C@@](C)(O)[C@H]3[C@H](O)[C@@H]12 [Oxytetracycline (Terramycin)] | -0.41 | 0.0142 | -0.172 | 0.814 |
| C/C=C(\C)C(=O)N[C@@H](c1ccccc1)[C@@H](O)C(=O)O[C@H]1C[C@@]2(O)[C@@H](OC(=O)c3ccccc3)[C@@H]3[C@]4(OC(C)=O)CO[C@@H]4C[C@@H](O)[C@@]3(C)C(=O)[C@@H](OC(C)=O)C(=C1C)C2(C)C [Cephalomannine] | -0.315 | 0.227 | 0.146 | 0.308 |
| CC[C@@H](C(N)=O)N1CCCC1=O [Levetiracetam] | -0.368 | -0.0333 | -0.0234 | -0.347 |
| CC(O)(CS(=O)(=O)c1ccc(F)cc1)C(=O)Nc1ccc(C#N)c(C(F)(F)F)c1 (stereo not drawn) [Bicalutamide] | -0.213 | -0.0391 | 0.0155 | 0.134 |
| C=CC[C@@]1(O)CC[C@H]2[C@@H]3CCC4=CC(=O)CCC4=C3C=C[C@@]21C [Altrenogest] | -0.512 | -1.34 | -1.71 | -2.06 |
| CC(C)c1c(CN(C)C(C)Cc2ccccc2)n(C)n(-c2ccccc2)c1=O (stereo not drawn) [Famprofazone] | -1.04 | -1.13 | -0.706 | -0.791 |
| CC(=O)OCC1=C(C(=O)O)N2C(=O)[C@H](N)[C@H]2SC1 [7-Aminocephalosporanic acid] | 0.049 | -0.0889 | -0.207 | -0.0193 |
| O=c1ccc2cc(O[C@@H]3O[C@H](CO)[C@@H](O)[C@H](O)[C@@H]3O)c(O)cc2o1 [Esculin] | -0.553 | 0.208 | 0.517 | 0.465 |
| COC1=C[C@@H]2[C@@H]3Cc4ccc(OC)c(O)c4[C@]2(CCN3C)CC1=O [Sinomenine] | 0.0798 | -0.564 | -0.141 | -0.641 |
| C[C@]12CC[C@H](O)C[C@H]1CC[C@@H]1[C@@H]2C[C@@H](O)[C@]2(C)[C@@H](C3=CC(=O)OC3)CC[C@]12O [Digoxigenin] | -0.501 | -1 | -0.18 | -0.556 |
| CN1C2CCC1CC(OC(=O)[C@H](CO)c1ccccc1)C2 (stereo partly drawn) [Hyoscyamine] | -0.772 | -0.444 | -0.109 | -1.06 |
| Nc1nc(N)nc(NC2CC2)n1 [Cyromazine] | -0.218 | 0.156 | -0.34 | -0.126 |
| CCN1CCN(C(=O)Cc2ccc(Nc3ncc(F)c(Nc4ccc(C(=O)Nc5ccccc5Cl)cc4)n3)cc2)CC1 [Aurora A Inhibitor I] | 0.424 | -0.229 | -0.525 | -0.618 |
| N#CC(C#N)=Cc1ccc(O)c(O)c1 | 0.0714 | -0.454 | 0.135 | 0.202 |
| COc1cc(-n2c(S)nc3ccccc3c2=O)c(Cl)cc1Cl [Mdivi-1] | -0.692 | -1.01 | -1.01 | -2.17 |
| CNCC(=O)c1ccc(O)c(O)c1.Cl [Adrenalone HCl] | -0.434 | 0.0747 | 0.186 | 0.532 |
| CC(C)=CC1C(C(=O)OCc2cccc(Oc3ccccc3)c2)C1(C)C (stereo not drawn) [Phenothrin] | 0.0544 | 0.227 | 0.153 | 0.811 |
| CC(C)N(CCC(C(N)=O)(c1ccccc1)c1ccccn1)C(C)C.O=P(O)(O)O (stereo not drawn) [Disopyramide Phosphate] | 0.28 | 0.455 | 0.457 | 0.465 |
| CN1[C@@H]2CC[C@H]1CC(OC(=O)C1C=Nc3ccccc31)C2.Cl (stereo partly drawn) [Tropisetron] | 0.431 | 0.665 | 0.357 | 0.654 |
| C[C@H]1O[C@@H](O[C@@H]2C[C@H](O)[C@]3(CO)[C@H]4[C@H](O)C[C@]5(C)[C@H](C6=CC(=O)OC6)CC[C@]5(O)[C@@H]4CC[C@]3(O)C2)[C@@H](O)[C@H](O)[C@H]1O.O.O.O.O.O.O.O.O [Ouabain] | -0.741 | -0.388 | 0.0124 | -0.348 |
| O=C1C=CC[C@@H]2[C@@H]3CCCN4CCC[C@@H](CN12)[C@@H]34 [Sophocarpine] | -0.119 | -0.402 | 0.146 | -0.244 |

2 entries from above, set out differently:
Compound	OMR-Perf [1]	Prob-Test [2]	Prob-Naive [3]	Prob-Train [4]
CC(C)c1c(CN(C)C(C)Cc2ccccc2)n(C)n(-c2ccccc2)c1=O (stereo not drawn) [Famprofazone]	-1.04	-1.13	-0.706	-0.791
N#CC(C#N)=Cc1ccc(O)c(O)c1	0.0714	-0.454	0.135	0.202
